Test results reported in PMC12293820.
Results are given in words; binding and its absence hold for the method and conditions named. Binding seen in cells or lysates may run through a third protein. Some entries that bind do so weakly or less than the wild type.

Chains of the proteins cited; added tags and fusions are not shown.
UniProt Q16665: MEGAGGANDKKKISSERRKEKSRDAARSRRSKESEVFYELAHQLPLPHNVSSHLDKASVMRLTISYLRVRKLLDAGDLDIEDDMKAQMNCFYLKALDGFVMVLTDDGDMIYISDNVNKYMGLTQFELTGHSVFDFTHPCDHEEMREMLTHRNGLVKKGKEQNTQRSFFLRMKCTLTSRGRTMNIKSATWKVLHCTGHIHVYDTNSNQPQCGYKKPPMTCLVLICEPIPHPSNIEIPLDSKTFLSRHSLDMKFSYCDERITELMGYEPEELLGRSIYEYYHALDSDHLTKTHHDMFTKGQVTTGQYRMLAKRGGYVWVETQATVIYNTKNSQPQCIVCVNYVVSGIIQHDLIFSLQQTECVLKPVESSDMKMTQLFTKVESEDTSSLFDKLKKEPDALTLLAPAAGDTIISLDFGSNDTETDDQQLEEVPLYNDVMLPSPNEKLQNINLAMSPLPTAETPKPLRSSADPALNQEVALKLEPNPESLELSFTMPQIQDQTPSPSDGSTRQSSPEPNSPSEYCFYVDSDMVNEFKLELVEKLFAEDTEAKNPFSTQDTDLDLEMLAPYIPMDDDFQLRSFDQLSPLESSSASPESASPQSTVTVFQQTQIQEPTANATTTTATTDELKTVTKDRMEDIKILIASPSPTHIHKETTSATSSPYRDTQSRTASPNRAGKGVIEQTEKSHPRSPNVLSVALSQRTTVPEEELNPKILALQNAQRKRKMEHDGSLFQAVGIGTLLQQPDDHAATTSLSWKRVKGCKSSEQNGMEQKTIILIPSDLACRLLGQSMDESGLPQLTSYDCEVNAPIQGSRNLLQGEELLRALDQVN

Key:
[1] = biological target: T1, Estrogen-Related Receptor α (human (endogenous in MCF-7 and SK-BR-3)) (UniProt P11474); assay: condition: only cells treated with DES 25 µM for 24 h; co-IP; as a1, hypoxic MCF-7 and SK-BR-3 cells incubated 24 h with DES (ERRα inhibitor) 25 µM before lysis
T1 sequence: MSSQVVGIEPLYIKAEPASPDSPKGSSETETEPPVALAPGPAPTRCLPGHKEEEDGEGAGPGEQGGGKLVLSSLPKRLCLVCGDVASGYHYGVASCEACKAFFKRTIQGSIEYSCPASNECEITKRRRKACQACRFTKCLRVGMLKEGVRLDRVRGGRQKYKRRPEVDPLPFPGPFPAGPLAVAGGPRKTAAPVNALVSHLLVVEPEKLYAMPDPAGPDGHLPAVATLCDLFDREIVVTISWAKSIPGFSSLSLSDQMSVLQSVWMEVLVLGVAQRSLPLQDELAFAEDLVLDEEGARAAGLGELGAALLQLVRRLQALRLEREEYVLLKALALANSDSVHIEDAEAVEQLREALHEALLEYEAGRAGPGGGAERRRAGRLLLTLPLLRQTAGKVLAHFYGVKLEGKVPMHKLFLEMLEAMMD

[2] = biological target: T1, Estrogen-Related Receptor α (human (endogenous in MCF-7 and SK-BR-3)); assay: condition: only cells treated with YC-1 2.5 µM for 24 h; co-IP; as a1, hypoxic MCF-7 and SK-BR-3 cells incubated 24 h with YC-1 (HIF-1α inhibitor) 2.5 µM before lysis
[3] = biological target: T1, Estrogen-Related Receptor α (human (endogenous in MCF-7 and SK-BR-3)); assay: condition: only cells treated with XCT790 10 µM for 24 h; co-IP; as a1, hypoxic MCF-7 and SK-BR-3 cells incubated 24 h with XCT790 (inverse agonist of ERRα) 10 µM before lysis
[4] = biological target: T1, Estrogen-Related Receptor α (human (endogenous in MCF-7 and SK-BR-3)); assay: co-IP; 500 µg total protein of MCF-7 (spheroid) or SK-BR-3 (375 µM CoCl2) cells under hypoxia; lysis in 50 mM Tris-HCl pH 7.4, 150 mM NaCl, 1% Triton X-100; immunoprecipitated overnight with rabbit polyclonal anti-ERRα and protein-G Sepharose; washes incl. 0.5 M LiCl; Western blot

Hypoxia-inducible factor 1-alpha (from UniProt Q16665 1-826)
binding [1]: no binding | binding [2]: no binding | binding [3]: no binding | binding [4]: binds
